# From PubChem BioAssay AID540303 (National Center for Advancing Translational Sciences (NCATS), 2011)
# The whole screen tested about 330,000 compounds, of which about 1,000 (0.3%) were called active. This list was built around the results that the source calls inconclusive (neither active nor inactive); the mix of calls is not that of the screen. Calls follow the shape of the dose curve; as a rule, active = well fitted inhibition curve with a large enough effect; inconclusive = small, poorly fitted or top-dose-only effect; inactive = no such curve, though single readings can be large or run the other way; tested in mouse RAW 264.7 cells. Where the call is inconclusive, the potency comes from a doubtful curve fit.
# Test: qHTS for Inhibitors of Cell Surface uPA Generation; also: nearly all actives have a fitted effect of over 55% in size
# Conditions: cell surface uPA generation assay; series mostly up to 38.3 µM; activity change, negative = inhibition: at the top concentration
# Summary of the method: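 Murine RAW 264.7 cells are treated for 24 h with compound up to 38.3 uM final. Cell ATP, measured by ATP-Lite, remains high if blocking the uPA cascade prevents LF from reaching the cytoplasm.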
# % is scaled to controls: 0 for no effect and ±100 for the full control effect; potency is read from the fitted curve at half-maximal effect.
SMILES,"activity change, negative = inhibition",Potency
O=C(CN1CCN(S(=O)(=O)c2ccc(Br)s2)CC1)N1CCCCC1,inactive: -0.169%,–
Cc1ccc(C(=O)N2CCCC(CCC(=O)NCc3ccccc3F)C2)cn1 (configuration not stated),inactive: -0.805%,–
Cc1[nH]c2ccccc2c1C(=O)CCl,–,active: 8.91 µM
CCOc1ccc(N(CC(=O)Nc2ccccc2OCC)S(=O)(=O)c2c(C)noc2C)cc1,–,active: 1.26 µM
COc1cc(/C=C/C(=O)Nc2cccc(S(=O)(=O)N3CCOCC3)c2)ccc1OCC#N,–,"inconclusive: 10 µM [inhibitor, partial curve, poor fit]"
Nc1ccc(O)c2c1C(=O)c1ccccc1C2=O,–,"inconclusive: 12.6 µM [inhibitor, partial curve, poor fit]"
COc1cc(OC)c2c(-c3cccc(-c4ccc(C#N)cc4)c3)cc(=O)oc2c1,–,"inconclusive: 2.82 µM [inhibitor, full curve, poor fit]"
O=C(NNc1nc2c(F)cccc2s1)c1cc(=O)c2ccccc2o1,–,"inconclusive: 28.2 µM [inhibitor, single point]"
Cn1c(CCN2CCCC2)nc2cc(NS(=O)(=O)c3ccccc3)ccc21,–,"inconclusive: 12.6 µM [inhibitor, single point]"
CC(=O)O[C@H]1CC(C)(C)C(=C=C/C(C)=C/C=C/C(C)=C/C=C/C=C(C)/C=C/C=C(\C)C(=O)C[C@@]23O[C@]2(C)C[C@@H](O)CC3(C)C)[C@](C)(O)C1,–,"inconclusive: 22.4 µM [inhibitor, single point]"
COC(=O)Cc1c[nH]c2cccc(OCC(O)CN(Cc3ccc([N+](=O)[O-])cc3)C(C)(C)C)c12 (configuration not stated),inactive: 7.45%,–
Cc1nn(Cc2ccc(C(=O)NC3CCCCC3)o2)c(C)c1Br,–,"inconclusive: 22.4 µM [inhibitor, single point]"
O=C(/C=C/c1ccccc1F)N1CCN(c2ccccn2)CC1,inactive: 3.75%,–
Cc1ccc(S(=O)(=O)C2(C(=O)Nc3nccs3)CC2)cc1,inactive: 13.5%,–
Cc1cccc(-n2cc(CNCCc3nc(C)cc(C)n3)c(-c3cccc(F)c3)n2)c1,–,"inconclusive: 11.2 µM [inhibitor, single point]"
CCOC(=O)c1[nH]c(C)c(C(=O)Nc2ccc(C)c(C)c2)c1C,–,"inconclusive: 11.2 µM [inhibitor, partial curve, poor fit]"
CS(=O)(=O)c1ccc2nc(NC(=O)c3cccs3)sc2c1,–,"inconclusive: 0.794 µM [inhibitor, partial curve, poor fit]"
Clc1ccccc1OCCN1CCCCC1,inactive: 3.05%,–
N=c1ccn(Cc2ccccc2Cl)cc1,inactive: -1.15%,–
CC(C)N(C(=O)CSc1nnc(NC2CC2)s1)c1ccccc1,–,"inconclusive: 2.82 µM [inhibitor, single point]"
COc1ccc(CCNC(=O)COC(=O)c2cncc(Br)c2)cc1OC,–,"inconclusive: 3.55 µM [inhibitor, partial curve, poor fit]"
COc1ccc(-c2[nH]c(-c3ccc(Cl)cc3)nc2SCC(=O)Nc2nccs2)cc1,–,"inconclusive: 12.6 µM [inhibitor, single point]"
CCN(CC)CCCNC(=O)c1csc(Nc2cccc3ccccc23)n1,–,"inconclusive: 6.31 µM [inhibitor, partial curve, poor fit]"

# Already shown: entries from further up.
SMILES,"activity change, negative = inhibition",Potency
N=c1ccn(Cc2ccccc2Cl)cc1,inactive: -1.15%,–
CC(C)N(C(=O)CSc1nnc(NC2CC2)s1)c1ccccc1,–,"inconclusive: 2.82 µM [inhibitor, single point]"
COc1ccc(CCNC(=O)COC(=O)c2cncc(Br)c2)cc1OC,–,"inconclusive: 3.55 µM [inhibitor, partial curve, poor fit]"
COc1ccc(-c2[nH]c(-c3ccc(Cl)cc3)nc2SCC(=O)Nc2nccs2)cc1,–,"inconclusive: 12.6 µM [inhibitor, single point]"

# Further structures

SMILES,"activity change, negative = inhibition",Potency
COc1ccc2cc(-c3cccnc3)ncc2c1,–,"inconclusive: 11.2 µM [inhibitor, partial curve, poor fit]"
COc1cc(CN2CCCCCC2)cc(OC)c1OC,inactive: 0.515%,–
COc1cc(/C=C2/C(=O)NN(c3cccc(Cl)c3)C2=O)cc(OC)c1O,inactive: -5.79%,–
O=C(Nc1cccc(O)c1)c1c(O)c2ccccc2[nH]c1=O,–,"inconclusive: 14.1 µM [inhibitor, single point]"
O=[N+]([O-])c1cnccc1NC1CCCCC1,–,"inconclusive: 2.51 µM [inhibitor, full curve, poor fit]"
c1nc(N2CCCCC2)c2[nH]cnc2n1,–,"inconclusive: 31.6 µM [inhibitor, single point]"
Cn1cccc1C1C=C(c2ccc(C(C)(C)C)cc2)Nc2ncnn21 (configuration not stated),–,"inconclusive: 11.2 µM [inhibitor, single point]"
CCOC(=O)N1CCN(c2c(NCc3ccccc3Cl)c(=O)c2=O)CC1,–,"inconclusive: 10 µM [inhibitor, partial curve, poor fit]"
O=C1C=CC(=C(c2ccc(O)cc2)c2ccc(O)cc2)C=C1,–,active: 2 µM
CN1CCN(c2nc(-c3cccs3)nc3ccccc23)CC1,–,"inconclusive: 11.2 µM [inhibitor, partial curve]"
COc1ccc(/C=C/C(=O)c2cc(Br)ccc2O)cc1OC,–,"inconclusive: 1.41 µM [inhibitor, partial curve, poor fit]"
O=C(NC1CCN(Cc2ccc(Cl)cc2)CC1)c1cn(-c2ccccc2)nc1-c1cccnc1,–,"inconclusive: 12.6 µM [inhibitor, single point]"
COc1ccc(NC(=O)N2CCCC2C(=O)NCc2ccc(C)cc2)cc1 (configuration not stated),inactive: -10.3%,–
CC(C)CCNC(=O)CCCOc1cc(=O)n(C)c2ccccc12,inactive: -10.6%,–
O=C(CNC(=O)c1ccccc1)c1ccccc1,–,"inconclusive: 7.08 µM [inhibitor, single point]"
CC(=O)NC1=C(NC2CCS(=O)(=O)C2)C(=O)c2ccccc2C1=O (configuration not stated),–,"inconclusive: 28.2 µM [inhibitor, single point]"
O=C(Nc1ccc(F)cc1F)C1CCN(c2ncnc3c2sc2cccc(F)c23)CC1,–,"inconclusive: 10 µM [inhibitor, partial curve, poor fit]"
CC(C)(C)c1ccc(/C=N/NC(=O)CN2CCS(=O)(=O)CC2)cc1,inactive: -1.06%,–
C=CCn1c(CSc2ccc(C)cc2)n[nH]c1=S,inactive: 6.25%,–
Cc1cccc2nc(C(=O)Nc3cccc(C(=O)NC4CC4)c3)cn12,–,"inconclusive: 4.47 µM [inhibitor, partial curve, poor fit]"
CCCCCCSc1cc(-c2nc3ccc(C)cn3c2NCc2ccccc2)ccc1OC,–,"inconclusive: 14.1 µM [inhibitor, partial curve, poor fit]"
O=C(N/N=C/c1ccc2ncccc2c1)c1cc(-c2cccs2)nc2ccccc12,–,"inconclusive: 11.2 µM [inhibitor, single point]"
O=C(CCCN1C(=O)/C(=C/c2ccccc2)SC1=S)Nc1ccc(O)cc1,–,"inconclusive: 11.2 µM [inhibitor, partial curve, poor fit]"

SMILES,"activity change, negative = inhibition",Potency
Cc1cc[n+](-c2nc([O-])sc2/C=N/Nc2ccc([N+](=O)[O-])cc2)cc1,inactive: -2.86%,–
CCOC(=O)c1c(CSc2ccc(C)cc2)n(C)c2cc(Br)c(O)c(CN(C)C)c12,–,"inconclusive: 12.6 µM [inhibitor, single point]"
COc1ccc(NC(=O)c2ccc3c(c2)S(=O)(=O)N=C2CCCCCN23)cc1S(N)(=O)=O,inactive: 9.45%,–
N/C(=N\OC(=O)c1ccc(Cl)cc1Cl)c1ccncc1,–,"inconclusive: 10 µM [inhibitor, single point]"
COc1ccccc1N1CCN(CC(=O)Nc2cc(C)nn2-c2nc(C)cc(C)n2)CC1,–,"inconclusive: 2.51 µM [inhibitor, full curve]"
CCN(CC)C(=O)[C@H]1C[C@H](CC(=O)NCc2ccco2)C(=O)N2CCc3c([nH]c4ccc(Cl)cc34)[C@]12C,–,"inconclusive: 11.2 µM [inhibitor, single point]"
Cc1cc(C(=O)COC(=O)c2ccc(O)cc2)c(C)n1Cc1ccco1,inactive: -20.3%,–
COc1ccc(S(=O)(=O)N(C)C)cc1NC(=O)CN1CCN(C(=O)C2CC2)CC1,–,"inconclusive: 22.4 µM [inhibitor, partial curve, poor fit]"
Cc1ccc(C(C)C)c(OCC(=O)Nc2ccc3c(c2)nc(CCN2CCCCC2)n3C)c1,–,"inconclusive: 20 µM [inhibitor, single point]"
CN(C(=S)NC(=O)c1ccccc1)C1CCCCC1,–,"inconclusive: 11.2 µM [inhibitor, single point]"
CCOC(=O)c1ccc(Nc2nc(=O)c3cccnc3s2)cc1,–,"inconclusive: 2.82 µM [inhibitor, partial curve, poor fit]"
COc1ccc(Cl)cc1NC(=O)COC(=O)c1cc(C)oc1C,–,"inconclusive: 7.08 µM [inhibitor, partial curve, poor fit]"
NC(=S)N/N=C/c1c(O)ccc2ccccc12,–,"inconclusive: 10 µM [inhibitor, partial curve, poor fit]"
Cc1ccc(-c2cc(-c3ccccc3)nc(Cl)n2)cc1,inactive: -1.92%,–
CC1(C)Cc2ccccc2C(C(=O)c2ccccc2)=N1,inactive: 2.84%,–
Oc1ccc(-c2nc3cnccn3c2Nc2ccc3c(c2)OCCO3)cc1,–,"inconclusive: 8.91 µM [inhibitor, partial curve]"
O=C(Nc1ccnn1C1CCN(C(=O)c2ccccc2C(F)(F)F)CC1)C1CC1,–,"inconclusive: 1.58 µM [inhibitor, partial curve, poor fit]"
NNC(=O)c1[nH]c2ccc([N+](=O)[O-])cc2c1-c1ccccc1,–,"inconclusive: 2.82 µM [inhibitor, single point]"
O=C1N[C@H](Cc2ccccc2)COC(=O)[C@H](Cc2ccc(F)cc2)CC/C=C/C[C@@H]1CC(=O)N(CCO)Cc1ccccc1,–,"inconclusive: 12.6 µM [inhibitor, single point]"
Cc1ccc(C(=O)C[n+]2cc(-c3ccccc3)n3c2CCCCC3)cc1,–,"inconclusive: 11.2 µM [inhibitor, partial curve, poor fit]"
COc1ccccc1C(=O)NCCC(=O)Nc1cccnc1,inactive: -1.09%,–
